The other results are listed elsewhere or left out.
Legend:
Test in all cases: log2 fold change, soluble protein after heating vs DMSO (PISA); higher = thermal stabilisation; K562 lysate, 10 uM; active = over 0.2 and 3.5 SD of the protein, either way, in both replicates (recomputed)
[1] = compound: C1=CC=C(C=C1)[C@H](COC2=CC3=C(C=C2)NC(=O)N3)NC(=O)C4=CC=CN(C4=O)CC5=CC(=C(C=C5)F)F
Procedure, shortened: (§1)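 Log-two fold change in thermal stability relative to solvent controls is reported from duplicates. For each sample, crude K562 extract from dounce-homogenised pellets in PBS pH 7.4 with 1 mM MgCl2, at 1 mg/mL protein, was treated with 10 μM compound for 30 min. Aliquots heated for 3 min across 48°C-58°C were pooled, brought to 0.5% NP-40 at 4°C and cleared at 21,000xg for 90 min. The supernatant was quantified by TMTpro 16plex LC-MS/MS with channel sums equalised.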

Sequences of proteins named here, by UniProt entry; tags and fusion partners are left off. A change or cut given only in a name is not applied to a line headed by its entry.
UniProt O96017, whole entry, looked up: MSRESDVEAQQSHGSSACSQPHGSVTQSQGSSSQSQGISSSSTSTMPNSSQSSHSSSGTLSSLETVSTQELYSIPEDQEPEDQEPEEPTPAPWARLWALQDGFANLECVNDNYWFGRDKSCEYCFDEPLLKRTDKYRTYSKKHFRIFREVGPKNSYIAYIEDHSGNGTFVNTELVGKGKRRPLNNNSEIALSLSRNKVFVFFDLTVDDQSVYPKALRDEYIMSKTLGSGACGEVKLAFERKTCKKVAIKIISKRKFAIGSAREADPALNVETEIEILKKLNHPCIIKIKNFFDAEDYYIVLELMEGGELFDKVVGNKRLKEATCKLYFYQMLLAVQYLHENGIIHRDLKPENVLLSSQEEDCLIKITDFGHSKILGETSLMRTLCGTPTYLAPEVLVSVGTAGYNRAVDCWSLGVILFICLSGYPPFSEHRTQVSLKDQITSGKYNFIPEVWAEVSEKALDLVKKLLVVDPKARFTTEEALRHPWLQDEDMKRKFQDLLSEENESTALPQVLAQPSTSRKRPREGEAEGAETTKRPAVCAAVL
UniProt Q00610: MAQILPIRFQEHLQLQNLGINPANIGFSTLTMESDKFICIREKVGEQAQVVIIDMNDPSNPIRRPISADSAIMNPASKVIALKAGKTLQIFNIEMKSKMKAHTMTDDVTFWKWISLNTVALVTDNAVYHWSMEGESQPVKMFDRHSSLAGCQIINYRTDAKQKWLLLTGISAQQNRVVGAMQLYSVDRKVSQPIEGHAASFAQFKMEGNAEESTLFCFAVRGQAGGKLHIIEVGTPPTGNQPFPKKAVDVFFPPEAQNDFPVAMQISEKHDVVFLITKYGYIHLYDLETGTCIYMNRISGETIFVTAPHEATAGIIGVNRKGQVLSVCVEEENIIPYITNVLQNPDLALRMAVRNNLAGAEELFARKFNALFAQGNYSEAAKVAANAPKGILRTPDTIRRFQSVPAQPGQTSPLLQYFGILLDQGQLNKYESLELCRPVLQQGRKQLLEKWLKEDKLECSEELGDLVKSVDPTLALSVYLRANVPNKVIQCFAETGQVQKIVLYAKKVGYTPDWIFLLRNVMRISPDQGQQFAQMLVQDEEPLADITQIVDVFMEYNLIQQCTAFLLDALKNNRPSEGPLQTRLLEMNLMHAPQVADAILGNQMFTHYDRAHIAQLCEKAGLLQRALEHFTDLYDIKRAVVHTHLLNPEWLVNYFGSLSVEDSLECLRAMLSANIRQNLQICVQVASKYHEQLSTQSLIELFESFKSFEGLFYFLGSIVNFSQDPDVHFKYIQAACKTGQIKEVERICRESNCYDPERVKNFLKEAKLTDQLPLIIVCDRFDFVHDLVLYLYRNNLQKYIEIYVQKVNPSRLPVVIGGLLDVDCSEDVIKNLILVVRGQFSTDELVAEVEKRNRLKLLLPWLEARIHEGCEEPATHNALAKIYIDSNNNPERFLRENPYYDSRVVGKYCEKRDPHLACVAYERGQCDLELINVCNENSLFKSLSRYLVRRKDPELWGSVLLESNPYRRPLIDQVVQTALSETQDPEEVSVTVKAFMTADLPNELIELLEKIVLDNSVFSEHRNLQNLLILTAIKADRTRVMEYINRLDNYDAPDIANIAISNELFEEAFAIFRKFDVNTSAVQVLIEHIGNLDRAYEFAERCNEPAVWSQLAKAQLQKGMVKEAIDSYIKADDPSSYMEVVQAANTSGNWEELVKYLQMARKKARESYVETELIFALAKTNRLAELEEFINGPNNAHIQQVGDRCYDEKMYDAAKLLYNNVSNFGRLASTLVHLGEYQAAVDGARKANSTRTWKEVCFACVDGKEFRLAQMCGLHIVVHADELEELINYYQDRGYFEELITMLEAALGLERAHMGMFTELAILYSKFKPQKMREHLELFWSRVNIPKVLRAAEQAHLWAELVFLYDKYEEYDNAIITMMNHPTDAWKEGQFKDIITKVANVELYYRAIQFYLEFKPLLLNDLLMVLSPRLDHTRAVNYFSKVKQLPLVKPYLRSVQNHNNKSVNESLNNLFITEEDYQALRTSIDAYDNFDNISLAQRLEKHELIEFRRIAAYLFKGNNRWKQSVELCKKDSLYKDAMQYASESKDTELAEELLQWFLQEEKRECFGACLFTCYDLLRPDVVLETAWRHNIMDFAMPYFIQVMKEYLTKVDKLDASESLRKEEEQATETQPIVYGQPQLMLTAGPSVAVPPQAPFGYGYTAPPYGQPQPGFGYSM
UniProt Q8NFW8: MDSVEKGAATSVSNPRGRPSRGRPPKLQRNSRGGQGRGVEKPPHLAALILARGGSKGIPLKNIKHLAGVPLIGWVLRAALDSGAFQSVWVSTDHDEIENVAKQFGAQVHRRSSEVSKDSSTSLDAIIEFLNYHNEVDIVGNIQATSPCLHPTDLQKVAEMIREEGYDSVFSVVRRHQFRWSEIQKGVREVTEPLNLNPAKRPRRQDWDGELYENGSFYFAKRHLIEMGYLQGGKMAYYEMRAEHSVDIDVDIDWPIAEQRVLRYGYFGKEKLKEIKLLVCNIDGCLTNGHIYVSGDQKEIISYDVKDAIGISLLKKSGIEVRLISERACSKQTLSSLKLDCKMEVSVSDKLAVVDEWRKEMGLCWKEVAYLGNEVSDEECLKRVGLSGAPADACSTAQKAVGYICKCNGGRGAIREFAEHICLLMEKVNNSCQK
UniProt Q9HD42: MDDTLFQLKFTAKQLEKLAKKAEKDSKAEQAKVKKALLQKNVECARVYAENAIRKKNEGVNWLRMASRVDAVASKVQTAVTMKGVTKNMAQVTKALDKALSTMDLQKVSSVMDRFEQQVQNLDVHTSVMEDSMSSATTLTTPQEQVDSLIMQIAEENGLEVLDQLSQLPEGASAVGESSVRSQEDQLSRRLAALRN
UniProt Q8WUX9: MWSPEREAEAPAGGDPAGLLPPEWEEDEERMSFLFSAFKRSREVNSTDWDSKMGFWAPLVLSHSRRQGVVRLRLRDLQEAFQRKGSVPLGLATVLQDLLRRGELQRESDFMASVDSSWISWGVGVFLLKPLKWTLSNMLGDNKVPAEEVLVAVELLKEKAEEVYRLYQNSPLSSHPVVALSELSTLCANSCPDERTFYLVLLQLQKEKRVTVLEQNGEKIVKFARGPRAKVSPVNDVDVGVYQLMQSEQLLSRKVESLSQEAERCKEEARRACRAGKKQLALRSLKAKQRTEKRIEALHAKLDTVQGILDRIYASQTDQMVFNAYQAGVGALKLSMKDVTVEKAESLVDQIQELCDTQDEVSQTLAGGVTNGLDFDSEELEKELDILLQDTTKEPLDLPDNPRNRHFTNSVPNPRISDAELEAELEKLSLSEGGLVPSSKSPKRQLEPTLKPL
UniProt I3L2J0: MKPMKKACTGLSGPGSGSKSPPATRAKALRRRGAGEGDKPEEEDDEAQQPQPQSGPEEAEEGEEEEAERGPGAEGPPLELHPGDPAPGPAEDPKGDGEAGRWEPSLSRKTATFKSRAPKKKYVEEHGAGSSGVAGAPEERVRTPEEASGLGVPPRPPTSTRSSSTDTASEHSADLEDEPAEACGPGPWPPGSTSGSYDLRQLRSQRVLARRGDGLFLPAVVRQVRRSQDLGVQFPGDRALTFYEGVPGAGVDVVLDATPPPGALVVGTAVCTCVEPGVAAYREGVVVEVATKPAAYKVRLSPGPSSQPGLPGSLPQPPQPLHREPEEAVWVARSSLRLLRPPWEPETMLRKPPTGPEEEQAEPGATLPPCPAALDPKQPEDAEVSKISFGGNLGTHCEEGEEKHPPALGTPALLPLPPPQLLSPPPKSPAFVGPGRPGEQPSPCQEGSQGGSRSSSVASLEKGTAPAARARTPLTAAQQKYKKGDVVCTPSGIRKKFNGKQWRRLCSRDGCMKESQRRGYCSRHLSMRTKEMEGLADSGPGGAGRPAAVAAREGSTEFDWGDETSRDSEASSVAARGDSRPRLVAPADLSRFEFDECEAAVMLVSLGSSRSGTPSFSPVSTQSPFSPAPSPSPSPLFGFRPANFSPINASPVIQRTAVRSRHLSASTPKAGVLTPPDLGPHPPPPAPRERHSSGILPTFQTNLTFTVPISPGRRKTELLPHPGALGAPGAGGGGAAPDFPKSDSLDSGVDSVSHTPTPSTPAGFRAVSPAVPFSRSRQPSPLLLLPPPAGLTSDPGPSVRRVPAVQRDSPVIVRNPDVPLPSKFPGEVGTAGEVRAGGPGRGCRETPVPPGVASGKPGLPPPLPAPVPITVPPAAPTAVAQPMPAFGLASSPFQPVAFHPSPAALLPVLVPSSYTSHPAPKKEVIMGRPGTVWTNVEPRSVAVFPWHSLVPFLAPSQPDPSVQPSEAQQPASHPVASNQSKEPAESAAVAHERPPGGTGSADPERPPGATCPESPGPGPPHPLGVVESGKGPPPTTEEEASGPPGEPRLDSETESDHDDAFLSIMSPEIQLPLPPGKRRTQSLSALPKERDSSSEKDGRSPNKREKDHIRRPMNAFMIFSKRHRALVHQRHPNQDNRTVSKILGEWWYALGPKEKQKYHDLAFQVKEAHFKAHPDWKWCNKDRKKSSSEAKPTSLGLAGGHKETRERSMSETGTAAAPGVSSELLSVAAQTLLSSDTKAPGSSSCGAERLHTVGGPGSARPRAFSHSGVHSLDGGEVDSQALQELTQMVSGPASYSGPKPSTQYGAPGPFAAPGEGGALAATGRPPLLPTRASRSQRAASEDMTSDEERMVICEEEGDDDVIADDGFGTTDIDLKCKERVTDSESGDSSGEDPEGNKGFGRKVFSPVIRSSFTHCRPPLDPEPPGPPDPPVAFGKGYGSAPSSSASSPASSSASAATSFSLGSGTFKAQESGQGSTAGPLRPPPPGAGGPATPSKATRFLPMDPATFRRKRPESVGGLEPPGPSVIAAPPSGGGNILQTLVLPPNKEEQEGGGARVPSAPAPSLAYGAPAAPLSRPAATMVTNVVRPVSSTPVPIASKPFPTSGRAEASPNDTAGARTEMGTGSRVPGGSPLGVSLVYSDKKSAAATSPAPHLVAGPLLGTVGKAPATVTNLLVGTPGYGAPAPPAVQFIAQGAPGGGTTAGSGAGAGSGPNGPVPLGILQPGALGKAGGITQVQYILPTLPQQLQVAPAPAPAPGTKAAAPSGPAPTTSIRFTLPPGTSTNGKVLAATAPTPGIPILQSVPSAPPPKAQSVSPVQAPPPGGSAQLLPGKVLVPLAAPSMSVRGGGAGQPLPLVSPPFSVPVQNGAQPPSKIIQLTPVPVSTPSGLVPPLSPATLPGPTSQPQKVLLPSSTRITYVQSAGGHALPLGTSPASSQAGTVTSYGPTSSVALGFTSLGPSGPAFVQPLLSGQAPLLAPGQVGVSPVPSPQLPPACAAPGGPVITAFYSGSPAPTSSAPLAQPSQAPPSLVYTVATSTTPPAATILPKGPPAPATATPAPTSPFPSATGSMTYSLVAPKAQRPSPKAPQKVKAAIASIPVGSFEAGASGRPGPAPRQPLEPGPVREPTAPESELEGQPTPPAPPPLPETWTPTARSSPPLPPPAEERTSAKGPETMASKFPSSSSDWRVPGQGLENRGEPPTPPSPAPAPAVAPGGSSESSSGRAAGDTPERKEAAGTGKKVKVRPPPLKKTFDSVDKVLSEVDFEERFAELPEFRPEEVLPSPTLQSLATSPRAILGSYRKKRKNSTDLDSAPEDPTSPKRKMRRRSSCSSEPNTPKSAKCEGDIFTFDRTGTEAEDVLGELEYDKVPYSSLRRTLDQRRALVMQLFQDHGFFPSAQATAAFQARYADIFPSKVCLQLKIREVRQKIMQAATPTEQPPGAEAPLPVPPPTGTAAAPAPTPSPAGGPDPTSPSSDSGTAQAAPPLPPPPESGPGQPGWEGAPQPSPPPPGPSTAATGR
UniProt Q96FZ7: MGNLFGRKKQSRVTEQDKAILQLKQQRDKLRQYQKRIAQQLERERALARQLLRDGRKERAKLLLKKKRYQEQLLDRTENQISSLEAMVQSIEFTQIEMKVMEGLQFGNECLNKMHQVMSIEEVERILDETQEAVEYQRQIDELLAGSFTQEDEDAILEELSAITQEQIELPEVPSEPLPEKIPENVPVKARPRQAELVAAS
UniProt P61024, whole entry, looked up: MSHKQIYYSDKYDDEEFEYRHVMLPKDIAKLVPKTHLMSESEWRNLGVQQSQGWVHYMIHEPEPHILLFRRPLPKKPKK
UniProt Q7LBR1: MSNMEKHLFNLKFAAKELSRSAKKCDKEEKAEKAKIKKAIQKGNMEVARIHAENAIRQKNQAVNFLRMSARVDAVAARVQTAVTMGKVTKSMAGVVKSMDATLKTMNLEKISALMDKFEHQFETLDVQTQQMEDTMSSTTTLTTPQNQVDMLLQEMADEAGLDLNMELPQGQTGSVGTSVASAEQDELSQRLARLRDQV
UniProt Q9NZ45: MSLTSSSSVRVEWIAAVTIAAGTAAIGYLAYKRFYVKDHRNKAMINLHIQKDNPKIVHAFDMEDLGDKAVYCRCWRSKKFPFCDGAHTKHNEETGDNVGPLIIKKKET
UniProt Q9Y6H1: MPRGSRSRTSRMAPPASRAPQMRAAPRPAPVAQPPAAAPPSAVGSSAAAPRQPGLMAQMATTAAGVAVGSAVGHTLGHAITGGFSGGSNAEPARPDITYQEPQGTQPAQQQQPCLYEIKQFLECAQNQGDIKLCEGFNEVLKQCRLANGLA

[2] = compound: CC1=C(SC2=C1C(=N[C@H](C3=NN=C(N32)C)CC(=O)N)C4=CC=C(C=C4)Cl)C
Procedure, shortened: as §1

[3] = compound: CC1=C2C(=CC=C1)N=C(N(C2=O)C3=CC=CC=C3C)CN4C=NC5=C(N=CN=C54)N
Procedure, shortened: as §1

[4] = compound: Cc1sc2c(c1C)C(c1ccc(Cl)cc1)=N[C@@H](CC(=O)OC(C)(C)C)c1nnc(C)n1-2
Procedure, shortened: as §1

[5] = compound: c1ccc([C@@H]2C[C@H]2NC2CCNCC2)cc1
Procedure, shortened: as §1

Measured: log2 fold change

CLIC2 (UniProt O15247)
inactive: [1] -0.022 | [2] 0.033 | [3] 0 | [4] 0.017 | [5] 0.029

CHEK2 (UniProt O96017)
inactive: [1] -0.02 | [2] -0.041 | [3] -0.016 | [4] 0.006 | [5] 0.014

CLINT1 isoform 3 (UniProt Q14677)
inactive: [1] 0.051 | [2] -0.049 | [3] -0.006 | [4] 0.018 | [5] 0.009

CIZ1 (UniProt Q9ULV3)
inactive: [1] -0.007 | [2] -0.027 | [3] 0.002 | [4] -0.037 | [5] -0.02

CHTOP isoform 3 (UniProt Q9Y3Y2)
inactive: [1] 0.03 | [2] -0.015 | [3] 0.046 | [4] 0.071 | [5] 0.011

CKMT2 (UniProt P17540)
inactive: [1] 0.014 | [2] 0.005 | [3] -0.058 | [4] -0.033 | [5] -0.029

CLTC (UniProt Q00610)
inactive: [1] -0.005 | [2] 0.035 | [3] 0.045 | [4] 0.037 | [5] 0.053

CMAS (UniProt Q8NFW8)
inactive: [1] 0.025 | [2] 0.06 | [3] -0.011 | [4] 0.002 | [5] 0.02

CHMP1A (UniProt Q9HD42)
inactive: [1] 0.004 | [2] 0.007 | [3] -0.005 | [4] 0.057 | [5] 0.009

CHCHD10 (UniProt Q8WYQ3)
inactive: [1] -0.033 | [2] 0.097 | [3] -0.004 | [4] -0.01 | [5] 0.031

CHD2 (UniProt O14647)
inactive: [1] -0.007 | [2] -0.238 | [3] -0.053 | [4] 0.054 | [5] -0.038

CHCHD4 isoform 2 (UniProt Q8N4Q1)
inactive: [1] 0.04 | [2] -0.076 | [3] -0.101 | [4] -0.189 | [5] -0.168

CHMP7 (UniProt Q8WUX9)
inactive: [1] -0.225 | [2] 0.107 | [3] -0.001 | [4] 0.014 | [5] 0.035

CHAMP1 (UniProt Q96JM3)
inactive: [1] 0.053 | [2] 0.021 | [3] 0.002 | [4] 0.023 | [5] 0.034

CIC (UniProt I3L2J0)
inactive: [1] -0.03 | [2] -0.034 | [3] -0.109 | [4] 0.042 | [5] -0.02

CLUH, A0A494C0R8
inactive: [1] 0.014 | [2] 0.118 | [3] 0.133 | [4] -0.116 | [5] 0.132

CHD1 (UniProt O14646)
inactive: [1] -0.005 | [2] -0.018 | [3] -0.083 | [4] -0.057 | [5] 0.024

CLIC1 (UniProt O00299)
inactive: [1] 0.019 | [2] 0.025 | [3] 0.001 | [4] -0.004 | [5] -0.021

CHMP6 (UniProt Q96FZ7)
inactive: [1] 0.058 | [2] -0.047 | [3] 0.012 | [4] -0.009 | [5] -0.08

CLTA (UniProt P09496)
inactive: [1] -0.051 | [2] -0.103 | [3] 0.001 | [4] 0.031 | [5] 0.027

CKS1B (UniProt P61024)
inactive: [1] 0.017 | [2] -0.074 | [3] -0.058 | [4] 0.108 | [5] 0.194

CHMP1B (UniProt Q7LBR1)
inactive: [1] -0.045 | [2] 0.019 | [3] -0.003 | [4] -0.029 | [5] 0.036

CHM (UniProt P24386)
inactive: [1] -0.035 | [2] 0.11 | [3] 0.158 | [4] -0.05 | [5] -0.015

CISD1 (UniProt Q9NZ45)
inactive: [1] 0.043 | [2] 0.021 | [3] -0.025 | [4] -0.025 | [5] 0

2 successive records already listed, for reference:
CLTA (UniProt P09496)
inactive: [1] -0.051 | [2] -0.103 | [3] 0.001 | [4] 0.031 | [5] 0.027

CKS1B (UniProt P61024)
inactive: [1] 0.017 | [2] -0.074 | [3] -0.058 | [4] 0.108 | [5] 0.194

(cont.)

CHCHD2 (UniProt Q9Y6H1)
inactive: [1] -0.123 | [2] -0.043 | [3] -0.015 | [4] 0.062 | [5] -0.01

CKB (UniProt P12277)
inactive: [1] -0.009 | [2] 0.013 | [3] -0.017 | [4] 0.024 | [5] 0.054
